# Test results as given in PubChem BioAssay AID1347423 (Functional Genomics Laboratory (NCATS/FGL), 2020).
# Among all 52,000 sequences or so, about 210 (0.4%) were called active.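 How the source made its calls: active means gene whose silencing raises cell survival under the drug, median off-target-corrected z-score across its silencing RNAs 2 or more; inactive means the rest.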 The list shows a part of the results.
# Experiment: Resistance to Poly (ADP-Ribose) Polymerase inhibitor: Gene Identification via Genome-wide siRNA Screen
# Conditions: mouse BRCA2 R2336H ES cells, olaparib, CellTiter-Glo viability; stronger effect = higher value
# Procedure, shortened: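 Mouse BRCA2 R2336H ES cells were reverse-transfected with siRNA (20 nM final), treated at 48 h with 500 nM olaparib, and read by CellTiter-Glo after 72 h. Scores: MAD-based z per siRNA, median per gene, seed off-target correction.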
row,Sequence,z-score
1,GGCAAAUGUAAAGUUAGGUTT against Zfp191,inactive: 0.218
2,GGCUCCUCGGUUUAAAGGUTT against 4930550B20Rik,inactive: 0.889
3,GGAAUAUACGAGAAAACCUTT against Epha7,inactive: 2.71
4,CCACUAAUAGUCGUAGAAUTT against Dte,inactive: 0.736
5,GGAGCUCUCUAUUUAGUUATT against E130114P18Rik,inactive: 0.139
6,GGUCUACUUUAGACAACUUTT against Sdc1,inactive: 1.31
7,GGCAGAAAUUUGGAUACCATT against Plekha4,inactive: -1.03
8,GCCCUUCGCUUAAAGACCATT against Nrbf1,inactive: 0.0954
9,GGAAAAUUCUUCCAACAUCTT against Csdufd1,inactive: -0.471
10,GGGAGAAGAGGAACAGUUCTT against Slc25a17,inactive: -2.54
11,GCAAUUGAAAGUGAACAAUTT against Olfr1360,inactive: -1.58
12,GGAAGACCUUGUGUUUGCATT against Mmp13,inactive: -0.534
13,GGAACUUUCAGAAUCAAUGTT against Cdh13,inactive: -0.111
14,GGAAUACAUUCCUUUUAAGTT against Gpx3,inactive: -0.23
15,GAUCCUCUCUAGUACUUGATT against Ldoc1,inactive: 0.779
16,GGAUUUCAGCGAAGUGUACTT against Mapk11,inactive: 0.507
17,GGAUGCUUGUGAAUAUGCUTT against Olfr346,inactive: -0.285
18,GGACAGCUGUUUCAAUUCUTT against Il1rap,inactive: -1.38
19,GCGAUUAAUGGCAUAGUUUTT against Sara1,inactive: -1.04
20,GGUGGAAUAUAGCUUCAUCTT against Ifngr2,inactive: -0.8
21,GGUAAAUGAGUAGCUUAGUTT against 1300006M19Rik,inactive: 0.502
22,GCAUGUGAUUUCAGGUUGATT against Echdc1,inactive: -0.808

row,Sequence,z-score
1,GGUCUUCUCCGAAAGUGAATT against B230106I24Rik,inactive: -0.271
2,GCUGCAUUACAAGCCCAACTT against 0610030H11Rik,inactive: -0.157
3,GGCGCAUUAGCAGAGACUGTT against Mrps5,inactive: -0.832
4,GCGAGCUGUACCUUUCUAGTT against Lmo3,inactive: -2.72
5,GGACAUAGUCCUUUUUGUUTT against Myod1,inactive: -0.501
6,GGAUUUCCCAUCAAAGACGTT against Serpinf2,inactive: 0.799
7,CCCUGAUUGGACUGAACUCTT against Olfr145,inactive: 1.05
8,GGGAGCAGAUUGAAACAGUTT against 4933424N09Rik,inactive: 0.495
9,CCCUUGUUGUUUAUCCUCATT against Ly6f,inactive: -0.869
10,GGACAAUGACCAGUUGAACTT against Prrx1,inactive: 0.557
11,CCUCAAGGCAGUUCAUAUUTT against 6330581L23Rik,inactive: 0.313
12,GGAGCUCCUGUACGACUAUTT against 2410195B05Rik,inactive: -1.33
13,GCAGAAAUGUCCAUCCAAATT against Sprr2k,inactive: 0.585
14,GGAGUUUGUGUUGUCAGUGTT against Kcng3,inactive: 2.16
15,GUGGCUGACAAGUUUAUCATT against Cyp2c66,inactive: 0.843
16,GCAGCAGUUGGCUAAAACATT against 2900006K08Rik,inactive: 0.163
17,GGAAUUUUAUCAUUGGGACTT against 5031404N07,inactive: -0.078
18,GCUGCAUUGGUUGAAUGUGTT against Slc22a1,inactive: -1.56
19,GCAUAUAUCUGUGGAGUGUTT against Olfr1502,inactive: 0.762
20,GCUCACACAGGGAACAUUGTT against Butr1,inactive: -1.5
21,CCUGAGACAUACUUAAUGUTT against Anapc10,inactive: 0.877
22,GGAUCUUUGCUACAAAAACTT against Fhl5,inactive: 0.13

# Three records picked at random from the list so far, as already listed:
row,Sequence,z-score
17,GGAAUUUUAUCAUUGGGACTT against 5031404N07,inactive: -0.078
16,GCAGCAGUUGGCUAAAACATT against 2900006K08Rik,inactive: 0.163
21,CCUGAGACAUACUUAAUGUTT against Anapc10,inactive: 0.877

# (listing goes on)

row,Sequence,z-score
1,CCACCCUUGGUAAAAAUGUTT against Olfr1006,inactive: -1.87
2,GGUAAUGUGGAACACAGCATT against Gsr,inactive: 1.11
3,GGAUCAGAGAACAGAGUCUTT against Alms1,inactive: -1.14
4,CGAUACGGAUGUUUUCUCUTT against 6720430O15,inactive: -0.421
5,GCUUAAAUGUUCUCUGUUCTT against E230012M21,inactive: 0.0386
6,GCCAUGAUGACUAACCUUATT against Dbpht2,inactive: -1.13
7,GGUCACUCCGAUGUUAUUUTT against G6pc,inactive: -0.0399
8,CCGUAAUCUGGUUGGAUUUTT against 4931419P11Rik,inactive: 1.42
9,GGUUAAGAGCUCUACAAAUTT against 4921513O04,inactive: 0.817
10,GGAAAAGCUUUUGUUCCCATT against Tfb1m,inactive: 0.934
11,GGAAAAGGUAGGGACCUAUTT against Tce4,inactive: 0.876
12,GACCACACUCAUCCAGGCUTT against Pgbpll,inactive: 2.74
13,GGUAACUCUCCUUAGCCAGTT against Klk10,inactive: 2.07
14,CCUGAGACUGCAUCUUUUCTT against 2410193C02Rik,inactive: 0.921
15,GGAAGAAGACAUGCUCACUTT against Pcdhb8,inactive: 1.35
16,GGACGGCAAAUUUGGUUUCTT against Mmp9,inactive: 3.19
17,GGUGCUACUCCAGAUUGACTT against Tbc1d13,inactive: 1.89
18,CCAAAUUCAUCAGAUCUUCTT against Olfr424,inactive: 0.000965
19,GCCACUACAUAAAAUAGUCTT against D11Moh35,inactive: -0.529
20,CCUGUGGUGCAAACGGUUGTT against Osm,inactive: -0.513
21,GGAUGUGGAGCAAGUGAAGTT against Stx1b2,inactive: -0.267
22,GGAAAACCAGCACAAUUUATT against Igsf4a,inactive: -0.365

# Some of the entries above, reformatted:
row	Sequence	z-score
4	CGAUACGGAUGUUUUCUCUTT against 6720430O15	inactive: -0.421
19	GCCACUACAUAAAAUAGUCTT against D11Moh35	inactive: -0.529
